In patent publication US20240287202A1 (XYPHOS BIOSCIENCES, published 2024):
These are yes or no findings as the source states them, for the method shown. Some binding calls cover weakened binding; strength is not graded here. Where a sequence is shown, tags or fusion partners need not be part of it.

Experiments:
[1] = molecular target: iNKG2D.YA-CAR on primary human T cells (convertibleCAR) (human); assay: flow cytometry of CD8+ T cells; Rituximab.LC-U2S3 followed by PE mouse anti-human kappa, against GFP
[2] = molecular target: iNKG2D.YA-CAR on primary human T cells (convertibleCAR) (human); assay: flow cytometry on transduced CD8+ T cells, PE anti-human kappa chain (FIG. 7C)
[3] = molecular target: iNKG2D.YA-CAR on primary human T cells (convertibleCAR) (human); assay: flow cytometry of blood T cells of NSG mice with Raji lymphoma; biotinylated anti-human F(ab')2 and streptavidin-PE
[4] = molecular target: iNKG2D.YA-CAR on primary human T cells (convertibleCAR) (human); assay: flow cytometry; convertibleCAR-CD8 cells incubated 30 min with Alexa Fluor 647 Rituximab.LC-U2S3, washed
[5] = molecular target: iNKG2D.YA-CAR on primary human T cells (convertibleCAR) (human); assay: flow cytometry of blood T cells from treated NSG mice, anti-F(ab')2 (FIG. 11E)
[6] = molecular target: iNKG2D.YA-CAR on primary human T cells (convertibleCAR) (human); assay: flow cytometry of blood T cells of NSG mice with subcutaneous Raji tumors; anti-human F(ab')2 staining
[7] = molecular target: iNKG2D.YA-CAR on primary human T cells (convertibleCAR) (human); assay: flow cytometry on convertibleCAR-T cells armed ex vivo with 5 nM MicAbody

Measured: binding

B1: Rituximab.LC-U2S3 MicAbody (U2S3 A1-A2 domain fused to the C-terminus of the rituximab kappa light chain) (bispecific antibody)
heavy: QVQLQQPGAELVKPGASVKMSCKASGYTFTSYNMHWVKQTPGRGLEWIGAIYPGNGDTSYNQKFKGKATLTADKSSSTAYMQLSSLTSEDSAVYYCARSTYYGGDWYFNVWGAGTTVTVSAA
light (part 1 of 2): QIVLSQSPAILSASPGEKVTMTCRASSSVSYIHWFQQKPGSSPKPWIYATSNLASGVPVRFSGSGSGTSYSLTISRVEAEDAATYYCQQWTSNPPTFGGGTKLEIK
light (part 2 of 2): APTSSSGGGGSEPHSLSYDITVIPKFRPGPRWCAVQGQVDEKTFLHYDCGQKTVTPVSPLGKKLQVTTAWKAQNPVLREVVDILTEQLWDIQLENYTPKEPLTLQARMSCEQKAEGHSSGSWQFSFDGQIFLLFDSEKRMWTTVHPGARKMKEKWENDKVVATKLYLWSMGDCIGWLEDFLMGMDSTLEPS
notes: also called Rit-S3; Ritux-S3; not shown: human IgG1 heavy-chain constant region, ADCC-deficient; human kappa light-chain constant region
binds: all assays above
